Measurements published in paper PMC8628943.
These are yes or no findings as the source states them, for the method shown. Some results given as binding are weak or reduced against the parent protein; the word gives no strength.

Target: T1, human fibrinogen gamma subunit (human), P02679
T1 chain: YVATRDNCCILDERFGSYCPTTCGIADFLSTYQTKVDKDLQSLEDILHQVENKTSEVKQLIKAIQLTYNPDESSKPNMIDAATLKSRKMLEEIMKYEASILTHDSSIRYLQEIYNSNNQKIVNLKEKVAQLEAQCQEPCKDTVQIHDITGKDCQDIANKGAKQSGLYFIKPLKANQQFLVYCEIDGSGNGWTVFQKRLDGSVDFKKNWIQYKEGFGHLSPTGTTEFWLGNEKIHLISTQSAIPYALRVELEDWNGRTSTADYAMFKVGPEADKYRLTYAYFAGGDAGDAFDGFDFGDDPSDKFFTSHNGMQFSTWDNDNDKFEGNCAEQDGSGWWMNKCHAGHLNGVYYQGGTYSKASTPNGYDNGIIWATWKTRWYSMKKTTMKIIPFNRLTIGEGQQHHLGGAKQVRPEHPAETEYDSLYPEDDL
Experiment: cross-linking; enzymatic cross-linking: human fibrinogen 4 mg/mL with human Factor XIIIa 100 µg/mL in 0.05 M Tris-HCl, 10 mM CaCl2, pH 7.6, 37 °C, up to 110 min; reducing SDS-PAGE; dimer band digested in gel, LC-MS/MS (CID 30), MassMatrix search; both purified
Details: remark: other sources report otherwise

binding: binds
B1: human fibrinogen gamma subunit, P02679 27-453 (protein)
chain: YVATRDNCCILDERFGSYCPTTCGIADFLSTYQTKVDKDLQSLEDILHQVENKTSEVKQLIKAIQLTYNPDESSKPNMIDAATLKSRKMLEEIMKYEASILTHDSSIRYLQEIYNSNNQKIVNLKEKVAQLEAQCQEPCKDTVQIHDITGKDCQDIANKGAKQSGLYFIKPLKANQQFLVYCEIDGSGNGWTVFQKRLDGSVDFKKNWIQYKEGFGHLSPTGTTEFWLGNEKIHLISTQSAIPYALRVELEDWNGRTSTADYAMFKVGPEADKYRLTYAYFAGGDAGDAFDGFDFGDDPSDKFFTSHNGMQFSTWDNDNDKFEGNCAEQDGSGWWMNKCHAGHLNGVYYQGGTYSKASTPNGYDNGIIWATWKTRWYSMKKTTMKIIPFNRLTIGEGQQHHLGGAKQVRPEHPAETEYDSLYPEDDL
